Paper PMC11050548
No constants are given. Whether binding was seen depends on the method and setting. Binding seen in cells or lysates may run through a third protein. Binding calls can cover weak binding; strength is not graded here.

The chains behind the UniProt entries cited, without tags or fusion partners. Where a name states a change or a piece, a line headed by the entry shows the natural chain unless it says otherwise.
UniProt Q9Y5K8: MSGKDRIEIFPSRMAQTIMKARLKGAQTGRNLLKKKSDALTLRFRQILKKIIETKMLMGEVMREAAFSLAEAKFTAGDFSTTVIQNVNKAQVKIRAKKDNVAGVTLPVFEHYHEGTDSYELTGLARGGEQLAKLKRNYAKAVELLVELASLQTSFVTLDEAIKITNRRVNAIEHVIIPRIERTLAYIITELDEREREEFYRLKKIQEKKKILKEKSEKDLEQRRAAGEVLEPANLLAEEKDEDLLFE
UniProt Q676U5: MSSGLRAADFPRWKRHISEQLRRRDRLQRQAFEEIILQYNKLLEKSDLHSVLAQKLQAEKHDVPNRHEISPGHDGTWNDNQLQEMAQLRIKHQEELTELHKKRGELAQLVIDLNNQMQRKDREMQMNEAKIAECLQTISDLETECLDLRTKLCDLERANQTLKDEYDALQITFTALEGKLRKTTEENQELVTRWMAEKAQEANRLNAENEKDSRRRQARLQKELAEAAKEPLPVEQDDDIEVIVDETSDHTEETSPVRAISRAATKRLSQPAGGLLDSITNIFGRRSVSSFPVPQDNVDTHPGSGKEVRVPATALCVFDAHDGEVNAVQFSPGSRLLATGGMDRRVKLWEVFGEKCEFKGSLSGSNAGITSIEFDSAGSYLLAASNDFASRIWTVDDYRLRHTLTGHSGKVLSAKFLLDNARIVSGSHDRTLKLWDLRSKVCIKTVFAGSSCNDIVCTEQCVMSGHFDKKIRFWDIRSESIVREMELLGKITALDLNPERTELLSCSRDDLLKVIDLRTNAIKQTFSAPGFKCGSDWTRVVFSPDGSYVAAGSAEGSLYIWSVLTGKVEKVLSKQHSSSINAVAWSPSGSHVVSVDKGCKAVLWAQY

Biological target: ATP6V1D (human (endogenous in HeLa)) (UniProt Q9Y5K8)
Test: co-IP; immunoprecipitation of ATP6V1D from cell lysates, blot for ATG16L1 and ATP6V1D; cells treated with 2 uM Torin1, 10 uM AMDE-1 or 10 uM niclosamide for 6 h (Figure 6I) or 20 uM AMDE-1 for 3 h (Figure 7J); IP lysis buffer 50 mM Tris-HCl pH 7.4, 1% TritonX-100, 150 mM NaCl, 1 mM EDTA

binding: binds weakly
Substance: GFP-ATG16L1^ΔWD2 (from UniProt Q676U5)
